The other results are listed elsewhere or left out.

Amino acid sequences for entries named in this document (tags omitted).
UniProt Q0JBA9, entry or part of it: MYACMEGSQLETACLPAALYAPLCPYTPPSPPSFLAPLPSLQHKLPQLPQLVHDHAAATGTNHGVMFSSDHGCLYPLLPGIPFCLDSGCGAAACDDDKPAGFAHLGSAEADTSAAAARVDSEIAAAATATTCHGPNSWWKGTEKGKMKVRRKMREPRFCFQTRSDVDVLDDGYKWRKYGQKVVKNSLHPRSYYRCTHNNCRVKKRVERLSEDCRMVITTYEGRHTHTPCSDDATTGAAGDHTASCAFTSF

This assay deals with OsWRKY34 (Oryza sativa, UniProt Q0JBA9 1-250). In words: protein-binding microarray (RPBM); PBS, 2% BSA, 51.3 ng/ul salmon testes DNA, 50 uM zinc acetate, 200 nM TF, 25 C, 1 h; high values mean tight binding. The following applies: protein: recombinant; tags: N-terminal polyhistidine and DsRed monomer fusion (pET32a); label: CyDye5-dUTP incorporated in the synthesized complementary strand; 3' TTTTT single-stranded linker to array surface; dsDNA, one strand shown. Put shortly:
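A custom Agilent array was converted to double-stranded form by primer extension with Cy5-dUTP and blocked with 2% BSA. Protein at 200 nM in PBS with 2% BSA, salmon testes DNA and 50 µM zinc acetate was applied for 1 h at 25 °C, followed by washing. The proteins were polyhistidine–DsRed N-terminal fusions of transcription factors, expressed in E. coli BL21-CodonPlus and Ni–NTA-purified. The binding signal is per-feature fluorescence intensity (arbitrary units) from an Axon 4000B scanner.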
Consider “AAGAAGGAGAGGGGAGGGGCTGACGGGTGGGATCACGTCGCGGAGTCACCTAGTGCAG”, for which the binding signal was 13800 fluorescence intensity (a.u.).

Consider “CGTCCAGCCGCCCGAATGCCCGATCCACCTCGTCCATAGCCGGAGTCACCTAGTGCAG”, for which the binding signal was 9800 fluorescence intensity (a.u.).

For the sequence “CTCGTCTCTGCTGTGTTCTGTCTGTTGTGCTTAAGGAGAGCGGAGTCACCTAGTGCAG”, the binding signal was 8370 fluorescence intensity (a.u.).

For the sequence “TCTTCTGAGTTCTTGTGTTTTCATACGTGCCAATCAAATGCGGAGTCACCTAGTGCAG”, the binding signal is 8310 fluorescence intensity (a.u.).

In the case of “AAAATCAACCCAGCCCAGTGTCACCGCGTACGTCACATTTCGGAGTCACCTAGTGCAG”, the binding signal was 8700 fluorescence intensity (a.u.).

“GTGAGGTGGGGTGGTGTGGCTTCTGCTGCTGCTGCTACTGCGGAGTCACCTAGTGCAG”: the binding signal was 15100 fluorescence intensity (a.u.).

For “ACTTCCAACTTTTCCGTCACATCGTTCCAATTTCAACCAACGGAGTCACCTAGTGCAG”, the binding signal was 8500 fluorescence intensity (a.u.).

For the sequence “ATGTGGTTCAACTGAATTTTCCATGCCCTATGTTAAGTCTCGGAGTCACCTAGTGCAG”, the binding signal is 8970 fluorescence intensity (a.u.).

As to “TAATGGGATGGGTGAAAAGTTATTGTTTTTGGTAGGCCTTCGGAGTCACCTAGTGCAG”, the binding signal was 9640 fluorescence intensity (a.u.).

On to “ACACATCACCCTTTAAAACTTAACCATTGGATCATTTTTGCGGAGTCACCTAGTGCAG”, for which the binding signal was 9380 fluorescence intensity (a.u.).

As for “AGATGGTGGGAGTAACATGTCTTTTTTTTTTTACATTGGACGGAGTCACCTAGTGCAG”, the binding signal was 9970 fluorescence intensity (a.u.).

With “GAGTAGTAGGACCTAGATCTATAAATACCAGCTTTCCAACCGGAGTCACCTAGTGCAG”, the binding signal was 8360 fluorescence intensity (a.u.).

Turning to “ATAGTTAAAAGCACCGCCAATCTGTCGTCGCCGCGCCGGCCGGAGTCACCTAGTGCAG”, the binding signal is 8840 fluorescence intensity (a.u.).

Turning to “AAGTCTTCTTTCATCTCACCACGTCACTTTTGGTCCATAGCGGAGTCACCTAGTGCAG”, the binding signal was 8500 fluorescence intensity (a.u.).

For the sequence “CAACCACCACCGCCTGAGCCGCCGCCGCCGCCGCCCGAGGCGGAGTCACCTAGTGCAG”, the binding signal was 12900 fluorescence intensity (a.u.).

Take “ATTCTAGGGACAATTGCTTATTTAACTATGTTTCAAACCACGGAGTCACCTAGTGCAG”: the binding signal was 8350 fluorescence intensity (a.u.).

Take “GAATTGTTGACCACGTGTTTCTGTTTGGACTCCTTTTTTTCGGAGTCACCTAGTGCAG”: the binding signal was 16400 fluorescence intensity (a.u.).

For the sequence “CGGCTTCTCCCCTCCGCCGCCTCCTCTCCTAGCCTTCCCCCGGAGTCACCTAGTGCAG”, the binding signal was 10700 fluorescence intensity (a.u.).

On to “TATATATATACACACCCGCTTGTTCATTTGTTCTTCCTGCCGGAGTCACCTAGTGCAG”, for which the binding signal was 9470 fluorescence intensity (a.u.).

“TTCGTCCATCCCACACAGTTAAATACACTGTTCATCCTATCGGAGTCACCTAGTGCAG”: the binding signal was 11000 fluorescence intensity (a.u.).

With “AACTATTTCTCATTTTATCTTCTCCAAATACAAATATCCCCGGAGTCACCTAGTGCAG”, the binding signal is 8250 fluorescence intensity (a.u.).

As for “CTAACATGTTATATGCTCAATTGGTTGGTCGAGGTTGATCCGGAGTCACCTAGTGCAG”, the binding signal is 8390 fluorescence intensity (a.u.).

“GATTGAGTGTGCCCGTGTGAGATAGAATCTTTTTGCCCTTCGGAGTCACCTAGTGCAG”: the binding signal was 8930 fluorescence intensity (a.u.).

Consider “TGTTTCTCAGTTGGGTATCTATGCAATCCAATTACCAATCCGGAGTCACCTAGTGCAG”, for which the binding signal was 9300 fluorescence intensity (a.u.).

Take “GGAAACTGGTGGGGTGGGAGTCGCCACGACACGCGGCGACCGGAGTCACCTAGTGCAG”: the binding signal was 8380 fluorescence intensity (a.u.).

Regarding “TCCATCAGTCATTCCAAGGTCAACCCAAACCCTACCTGGTCGGAGTCACCTAGTGCAG”, the binding signal is 8580 fluorescence intensity (a.u.).

For the sequence “ATTATTGTAAGGCCCTGTTTCTTTCAGCTTTGGATTATTACGGAGTCACCTAGTGCAG”, the binding signal was 9490 fluorescence intensity (a.u.).

In the case of “GCCCCGAGCGGGCCGAGCTCCCATCGTCTCATCGCCCCAACGGAGTCACCTAGTGCAG”, the binding signal is 11600 fluorescence intensity (a.u.).

As to “GTTGTGTTCCCTTGCCGCCGTTTACCAGTATGTGACCAAACGGAGTCACCTAGTGCAG”, the binding signal was 12500 fluorescence intensity (a.u.).

As for “CGGTCAATTCGGTTTTTTGGCTCGGTTAACCGAATTGACACGGAGTCACCTAGTGCAG”, the binding signal is 8520 fluorescence intensity (a.u.).

“TCCACACACAAGCACACATCCACACAACGGCAATTAATCACGGAGTCACCTAGTGCAG”: the binding signal was 8930 fluorescence intensity (a.u.).

On to “ACCACCATCCATGATCCATCCACAGATCCACTAGTACACTCGGAGTCACCTAGTGCAG”, for which the binding signal was 9440 fluorescence intensity (a.u.).

With “TCGATCGGTCTATATATTGGCGGGGTGGACCGTGGGCCGACGGAGTCACCTAGTGCAG”, the binding signal is 9410 fluorescence intensity (a.u.).

With “ACGTGATCCTGTTGTGTCTTAATTACTCGACGCTTTGATCCGGAGTCACCTAGTGCAG”, the binding signal is 10100 fluorescence intensity (a.u.).

As for “AGCGGTTTTACACATTTTTCTTACAATATTTGTTTGTTTCCGGAGTCACCTAGTGCAG”, the binding signal was 10400 fluorescence intensity (a.u.).

Regarding “TTTGCTTTTGGTCGGTGTTTTGATTTTTCTGCACATACAACGGAGTCACCTAGTGCAG”, the binding signal was 8680 fluorescence intensity (a.u.).

For “ATCTTGCTGATTTTGTTGTTGATTTGAATGCTATGTAAACCGGAGTCACCTAGTGCAG”, the binding signal is 9140 fluorescence intensity (a.u.).

As for “CATCTACATGGATATGCATCTCTATATATACGAACTTACCCGGAGTCACCTAGTGCAG”, the binding signal is 8070 fluorescence intensity (a.u.).

“CTGCCTAGACACAGCTCTACAACTCTAGTACATTTTGTGACGGAGTCACCTAGTGCAG”: the binding signal is 8190 fluorescence intensity (a.u.).

Take “GGAGAGGTGTATTTATATGTTTTTTTGTAGCGGTTAGATACGGAGTCACCTAGTGCAG”: the binding signal is 8930 fluorescence intensity (a.u.).

“TCCTCGTCTACGACGCGTTCCTCCTCTGGGCGCGCGCTGTCGGAGTCACCTAGTGCAG”: the binding signal was 8650 fluorescence intensity (a.u.).

With “GAGCACATCTTCAGGTAGCAGGTTTTCCATGCCCTCTATCCGGAGTCACCTAGTGCAG”, the binding signal is 12000 fluorescence intensity (a.u.).
